Among all 360,000 compounds or so, about 7,500 (2.1%) were called active. Inconclusive means that the source gave no clear call. Such entries were picked first, then a sample of the others. Calls come from the whole dose curve; as a rule, active = well fitted inhibition curve with a large enough effect; inconclusive = small, poorly fitted or top-dose-only effect, or effect the other way; inactive = flat fitted curve, though single readings scatter. A potency beside an inconclusive call is a rough fit, not a confirmed value.
Assay: Nrf2 qHTS screen for inhibitors; note: nearly all actives have a fitted effect of over 60% in size
Details: A549 ARE-Fluc reporter, luciferase luminescence, 18-24 h; series mostly up to 46 µM
Summary of the method: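 Concentration-response testing used A549 ARE_Fluc cells at 5000 cells/well. Following an 18-24 h compound incubation, viability was read by fluorescence (Ex 405/Em 525) and luciferase output by luminescence.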
For `O=C(NCc1ccc(F)cc1)c1c2c(nc3ccccc13)CCC2`, the Potency was inconclusive: 23.1 µM [activator, partial curve]. In the case of `O=C1c2cc(Br)ccc2OC2C=CC=CC12` (stereo unspecified), the Potency is reported as inconclusive: 25.9 µM [activator, partial curve]. In the case of `O=C(Nc1cc(Cl)ccc1O)c1snnc1-c1ccccc1`, the Potency is reported as inconclusive: 29.1 µM [falling, single point]. With `COc1ccc(C(=O)c2cc([N+](=O)[O-])ccc2N2CCCC2)cc1` the Potency was inconclusive: 29.1 µM [falling, partial curve, poor fit]. With `Cc1ccc2c(c1)C(=C(C#N)C#N)CCN2` the Potency was inconclusive: 23.1 µM [falling, single point]. For `COc1ccc(OC)c(-n2nnc(-c3nc(-c4ccc5c(c4)OCO5)no3)c2C)c1`, the Potency was inconclusive: 11.6 µM [activator, partial curve, poor fit]. For `COc1cccc(OCC(=O)N2CCCc3ccccc32)c1`, the Potency was inconclusive: 29.1 µM [activator, single point]. For `Clc1ccc(OCCCN2CCCCC2)c(Br)c1`, the Potency was inconclusive: 8.2 µM [activator, partial curve]. With `Cn1nc(C(F)(F)F)c(C#N)c1N1CCN(c2ccccc2F)CC1` the Potency was inconclusive: 0.231 µM [falling, full curve, poor fit]. For `Cc1cc(=O)c2ccccc2n1Cc1ccccc1`, the Potency was active: 16.4 µM. With `Cc1noc(-c2ccc(N(C)Cc3ccccc3)c([N+](=O)[O-])c2)n1` the Potency was inconclusive: 20.6 µM [activator, single point]. With `COc1ccccc1N1CCN(C(=O)C(F)F)CC1` the Potency was “inactive”. In the case of `COc1ccc(C(=O)Nc2cc(-c3nc4ncccc4o3)ccc2C)cc1Br`, the Potency is reported as inconclusive: 16.4 µM [falling, partial curve, poor fit]. In the case of `O=c1ccn(CCc2c[nH]c3ccccc23)c2c1CCCC2`, the Potency is reported as inconclusive: 16.4 µM [falling, partial curve, poor fit]. For `CCCOC(=O)c1ccc(NC(=O)CSC2=Nc3ccccc3C3CC=NN23)cc1` (stereo unspecified), the Potency was inconclusive: 8.2 µM [activator, partial curve, poor fit]. With `O=C1/C(=C\c2ccccc2)CCc2c1[nH]c1ccccc21` the Potency was inconclusive: 2.59 µM [activator, partial curve]. In the case of `Cc1ccc(NC(=O)CNC(=O)c2ccc(C)s2)nc1`, the Potency is reported as inconclusive: 5.8 µM [activator, single point]. With `C/C(=N\NC(=O)c1cc2ccccc2cc1O)c1ccccn1` the Potency was inconclusive: 18.4 µM [falling, single point]. For `COC(=O)c1ccc(C(=O)OC)c(NC(=O)CSc2cccc[n+]2[O-])c1`, the Potency was “inactive”. In the case of `CCc1ccc(-n2nc(C)c3c(C(=O)Nc4ccc(Cl)cc4)cc(C)nc32)cc1`, the Potency is reported as inconclusive: 6.51 µM [falling, full curve, poor fit]. In the case of `Cc1cc(-c2nc3ncccc3o2)ccc1NC(=S)NC(=O)c1ccco1`, the Potency is reported as inconclusive: 6.51 µM [activator, partial curve, poor fit]. For `COc1ccccc1C(=O)NCCC(=O)NCc1ccncc1`, the Potency was inconclusive: 2.31 µM [falling, partial curve]. With `Cc1cc(C(=O)OCC(=O)Nc2ccccc2C#N)c(C)o1` the Potency was inconclusive: 8.2 µM [activator, partial curve, poor fit]. For `O=C(CSc1nc2ccccc2[nH]1)c1cccs1`, the Potency was inconclusive: 9.2 µM [activator, partial curve, poor fit]. In the case of `O=C1CCc2cc(S(=O)(=O)N3CCN(Cc4ccc5c(c4)OCO5)CC3)ccc2N1`, the Potency is reported as inconclusive: 2.91 µM [falling, partial curve]. With `O=C(Cn1nnc(-c2ccc3c(c2)OCO3)n1)NCc1ccco1` the Potency was inconclusive: 5.17 µM [activator, partial curve]. In the case of `C1CCC(C(CC2CCCCN2)C2CCCCC2)CC1` (stereo unspecified), the Potency is reported as inconclusive: 25.9 µM [falling, single point]. In the case of `FC(F)(F)Sc1ccc(NC(=S)NCc2ccccc2)cc1`, the Potency is reported as inconclusive: 25.9 µM [falling, single point]. In the case of `COc1ccc(-c2cc(C(=O)N3CCN(c4cccc(C)c4C)CC3)c3ccccc3n2)cc1OC`, the Potency is reported as inconclusive: 32.6 µM [falling, single point]. For `Cc1ccc(-n2nc(C(=O)NCc3ccc(C)o3)c3c4ccccc4n(C)c3c2=O)cc1`, the Potency was inconclusive: 23.1 µM [falling, single point]. With `CCCN(CCC)c1ccc(/C=C/c2ccc3cc(OCC)ccc3n2)cc1` the Potency was “inactive”. In the case of `CCCC(=O)C1=C(O)C(C(=O)OC)C(C)(C)CC1=Nc1cccc([N+](=O)[O-])c1` (stereo unspecified), the Potency is reported as inconclusive: 23.1 µM [falling, partial curve, poor fit]. With `Cc1cccc(NC(=O)CN2C(=O)S/C(=C\c3cc(C)n(C)c3C)C2=O)c1` the Potency was inconclusive: 18.4 µM [falling, partial curve, poor fit]. In the case of `Cc1ccsc1C(=O)NCc1ccccc1Cl`, the Potency is reported as inconclusive: 29.1 µM [activator, single point]. In the case of `O=C(Nc1ccccc1F)NC1CCCCCCC1`, the Potency is reported as inconclusive: 23.1 µM [activator, single point]. With `O=S(=O)(c1cccs1)N1CCN(CCc2ccccc2)CC1` the Potency was inconclusive: 23.1 µM [falling, partial curve]. For `Cc1ccc(NC(=S)N(CCN(C)C)C(C)c2ccco2)c(C)c1` (stereo unspecified), the Potency was inconclusive: 10.3 µM [activator, single point]. In the case of `BrC(=C\c1ccccc1)/C=N/N1CCN(c2ccccc2)CC1`, the Potency is reported as inconclusive: 3.66 µM [activator, single point]. With `CC(=O)Nc1ccccc1OCC(=O)c1cc(C)n(Cc2cccs2)c1C` the Potency was active: 0.411 µM. For `COC(=O)c1cc(S(=O)(=O)N2CCN(c3cccc(Cl)c3)CC2)c[nH]1`, the Potency was inconclusive: 2.91 µM [falling, full curve, poor fit]. For `NC(=S)NN=C1CCC(C2CCCCC2)CC1` (stereo unspecified), the Potency was inconclusive: 16.4 µM [falling, partial curve, poor fit].
Potency is the fitted concentration of half-maximal effect.
